Experimental data as given in US20150133390A1, “Identification of New Therapeutic Uses for Known Therapeutic Agents” (The Board of Trustees of the Leland Stanford Junior …, priority 2012, published 2015).

Tests used:
[1] = tested on: graft infiltrating cells in cardiac allograft; assay: Graft histology / immunohistochemistry of infiltrating cells at POD 7; assay type: in vivo, mouse; settings: POD 7, compared to treatment with cyclosporine (p>0.05)
Method: (§1) FVB donor hearts were implanted into the abdomen of C57BL/6 WT mice representing a complete MHC mismatch, as described previously. Animals were divided into three treatment groups (Atorvastatin, Dasatinib, and Cyclosporine) and one non-treated control group, each consisting of 6 animals. Animal activity, body weight and graft viability (abdominal palpation) were assessed daily.
(§2) Atorvastatin (75 mg/kg body weight/day) and Dasatinib (25 mg/kg body weight/day) were administered daily by oral gavages, Cyclosporine (20 mg/kg body weight/day) was administered daily intraperitoneally. Before oral gavages of Atorvastatin and Dasatinib, aliquots were mixed thoroughly. Unused formulations were discarded. Treatment started the day prior to transplantation and lasted until the day before sacrifice at post operation day 7 by exsanguination. Grafts were harvested and divided into three equal parts for downstream analyses.
One third of the explanted allograft heart (POD7) was immediately fixed in […] buffered formalin, embedded in paraffin and subsequently stained with hematoxylin and eosin for histological assessment of tissue according to standard protocols. Pictures of the graft tissue were taken at 10× magnification using a Nikon E600 light microscope (Nikon Instruments Inc., Melville, N.Y.) and Spot V4.6 imaging software (Spot Imaging, Sterling Heights, Mich.).

CXCL10 = settings: patients with Crohn's disease, cited from earlier work
[2] = tested on: FVB donor hearts implanted into C57BL/6 WT mice (cardiac allograft); assay: Graft survival in murine heterotopic cardiac transplant model of acute rejection; assay type: in vivo, mouse; settings: Cox-proportional hazard analysis, treated compared to untreated AR
Method: as §1, §2
For survival study, another group of 6 mice for each treatment (total 18 mice for Cyclosporine, Atorvastatin, and Dasatinib) and 6 mice for untreated AR group were used using the same protocol described above. Graft viability (abdominal palpation) were assessed daily for these animals until post operation day 30.

SMILES: CC(C)c1c(C(=O)Nc2ccccc2)c(-c2ccccc2)c(-c2ccc(F)cc2)n1CC[C@@H](O)C[C@@H](O)CC(=O)O [atorvastatin]
- number of infiltrating cells (immunohistochemistry) relative to cyclosporine [1]: equivalent
- other chemokines and cytokines in plasma (CXCL10; nine chemokines and four endothelial cytokines investigated): did not affect
- CXCL10 plasma levels (CXCL10; Grip and Janciauskiene, 2009): reduced
- hazard ratio for graft survival [2]: 36.33
